From the supplement of paper PMC5407854, “Inhibitor of ppGalNAc-T3-mediated O-glycosylation blocks cancer cell invasiveness and lowers FGF23 levels” (eLife, 2017)
The other results are listed elsewhere or left out. Most entries show no effect beyond the scatter of the controls.

Columns and labels:
[1] = tested on: ppGalNAc-T3 sensor; assay: T3 sensor activation Q score (MG/GFP ratio z-score vs DMSO controls) (SD units); higher = more sensor activation (inhibition of ppGalNAc-T3 glycosylation); settings: HEK293 sensor cells; 10 µM; 6 h
Protocol: (§1)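 Cells were treated with compound at 10 uM for 6 h, then MG/GFP ratio was read by flow cytometry (10,000 cells per well, duplicate wells). Q = (R - R_neg)/SD_neg relative to DMSO vehicle controls; the signal rises when the glycosyltransferase is inhibited.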

[2] = tested on: ppGalNAc-T2 sensor; assay: T2 sensor activation Q score (MG/GFP ratio z-score vs DMSO controls) (SD units); higher = more sensor activation (inhibition of ppGalNAc-T2 glycosylation); settings: HEK293 sensor cells; 10 µM; 6 h
Protocol: as §1

SMILES	T3 sensor activation Q score [1]	T2 sensor activation Q score [2]
CCNCC(=O)N1c2ccccc2CCc2ccc(NC(C)=O)cc21	-0.16	1.61
O=c1cc(O)n(-c2ccccc2)[nH]1	-0.735	-0.165
CCN(CC)CC(=O)Nc1ccc2c(c1)Nc1ccccc1CC2	0.38	-1.1
Cc1ccc(C(=O)O)cc1S(=O)(=O)N1CCOCC1	0.205	0.26
C(#Cc1ccccc1)CN1CCN(CC#Cc2ccccc2)CC1	-0.415	0.01
Cc1ccc(S(=O)(=O)Nc2ccc(Cl)cc2)cc1	-0.73	-1.78
COc1ccccc1NCc1ccc([N+](=O)[O-])s1	0.205	-0.785
COc1ccccc1CC(CC(=O)O)C(=O)O (stereo unspecified)	0.525	0.27
Cc1ccccc1-c1nnn(Cc2ccc(F)cc2Cl)n1	0.6	-0.47
COc1cccc(Oc2nc(N)[nH]c(=O)c2Br)c1	-0.51	1.38
O=C1CC(N2CCOCC2)C(=O)N1c1cccc(Cl)c1 (stereo unspecified)	0.95	-0.06
O=C(Nc1cccc(Cl)c1Cl)C12CC3CC(CC(C3)C1)C2	0.42	0.985
CCOc1ccc(Cl)cc1S(=O)(=O)N1CCCCC1	0.635	0.09
Fc1ccc(CN2CCOCC2)cc1	-0.16	0.48
O=C(Nc1ccccc1)N1CCCC1	-0.545	-0.355
O=C(c1ccc(Cl)cc1Cl)N1CCCc2ccccc21	0.685	1.09
O=C(Nc1ccc(S(=O)(=O)Nc2nccs2)cc1)C12CC3CC(CC(C3)C1)C2	-0.115	0.195
O=C1c2ccccc2-c2onc3c(Br)cc(O)c1c23	0.455	-0.17
CC(NCCC(=O)O)c1ccccc1 (stereo unspecified)	-0.975	-1.75
OC1CSc2nc3ccccc3n2C1 (stereo unspecified)	0.405	-0.9
Cc1cc(F)c(F)c(C(=O)N2CCOCC2)c1Cl	0.505	0.325
CCOc1cc(CN2CCCC(C(=O)N(CC)CC)C2)ccc1O (stereo unspecified)	-0.16	0.325
O=C(NCc1cccnc1)c1ccc(F)cc1	0.925	-0.18
C=CCS(=O)(=O)Nc1ccc(OC)cc1	0.5	-0.71
CCSc1cc(C)nc2ncnn12	0.39	2.29
CC(=O)Nc1ccc(NC(=O)c2ccccc2Br)cc1	-0.105	-0.18
OCCN(CCO)CC1CC=CCC1 (stereo unspecified)	0.2	-0.035

SMILES	T3 sensor activation Q score [1]	T2 sensor activation Q score [2]
COc1ccc(S(=O)(=O)Nc2ccccc2Cl)cc1	-0.305	-0.61
COC(=O)Nc1nc2ccc(C(=O)c3ccccc3)cc2[nH]1	0.87	-0.435
O=S(=O)(NCc1ccccc1)c1ccc(Cl)cc1	0.24	-0.605
Cc1cccc(-c2nnc(-c3cccc(C)c3)o2)c1	-0.89	-0.965
NNC(=O)CNc1ccc(Cl)cc1Br	-0.3	0.25
CN(C)CC(O)Cn1c2ccc(Cl)cc2c2cc(Cl)ccc21 (stereo unspecified)	-0.075	0.785
Cc1ccccc1OCCCCN1CCOCC1	0.51	-0.485
NS(=O)(=O)c1ccc(Nc2nc(-c3cccnc3)cs2)cc1	0.76	0.1
CCCNC1=C(N2CCCCC2)C(=O)c2ccccc2C1=O	0.095	0.255
CCOc1cccc(N2C(=O)CC(N3CCN(CC)CC3)C2=O)c1 (stereo unspecified)	0.645	-0.18
CCOc1ccc(C(=O)N2CCN(Cc3ccccc3)CC2)cc1	1.72	1.24
O=C(c1c(F)c(F)c(F)c(F)c1F)N1CCCCCC1	0.325	0.43
COc1ccc(-n2ccc3ccccc32)cc1	-0.66	0.66
O=S1(=O)CCC(N2CCOCC2)C1 (stereo unspecified)	2.75	1.03
COc1ccc(NC(=O)c2sc3nc(C)cc(C)c3c2N)cc1	0.145	0.22
O=C(Nc1cccc2cccnc12)NC1CCCCC1	0.7	-0.76
CCCC1(O)CC(c2ccccc2)NC(c2ccccc2)C1C (stereo unspecified)	-0.015	-0.945
O=C(O)c1ccc(Br)c(S(=O)(=O)N2CCCCC2)c1	0.475	-0.3
Cc1cc(C)c(OCCn2ccnc2)c(C)c1	0.86	1.99
NC(=O)COc1ccccc1O	-0.7	-1.84
CCOc1ccc(NC(=O)Nc2ccc(Cl)cc2)cc1	0.965	0.505
CC1=CC(C)(C)N(C(=O)Cc2ccccc2)c2ccccc21	-0.42	-1.21
O=C(C1CCCO1)N1CCN(Cc2ccc3c(c2)OCO3)CC1 (stereo unspecified)	-0.325	-0.115
CCc1nnc(NC(=O)C2CCCCC2)s1	-0.31	-0.015
Cc1c(Cl)cccc1NC(=O)[C@@H]1C[C@@H]1c1ccccc1	-0.55	1.26
Nc1cc(NC(=O)C23CC4CC(CC(C4)C2)C3)cc(Oc2ccccc2)c1	0.275	0.47

Taken from above.
T3 sensor activation Q score [1], CCCNC1=C(N2CCCCC2)C(=O)c2ccccc2C1=O reads 0.095
T3 sensor activation Q score [1], O=C(c1c(F)c(F)c(F)c(F)c1F)N1CCCCCC1 reads 0.325
